Laboratory results taken from PubChem BioAssay AID2685 (National Center for Advancing Translational Sciences (NCATS), 2010).
This is one part of the list. These are further read-outs of the screen, such as a control signal, another cell line or another target. No call is given for them. The list favours compounds with an active or inconclusive main result. The note in brackets gives the kind of curve behind each potency; many fits are weak.

Experiment: qHTS Assay for Lipid Storage Modulators in Drosophila S3 Cells;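 on cell number change: cells counted by Cell Tracker Red CMTPX staining in the red channel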
Conditions: BODIPY lipid droplet fluorescence, 18-24 h; for cell number change: measured here: cell count max response, cells fed with added oleic acid
Procedure, shortened: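 Laser-scanning cytometry quantifies lipid droplet accumulation (500–530 nm total intensity; droplet/cell object ratio) in oleic acid-fed (400 uM added) Drosophila S3 cells treated with a concentration series. 20 uM Triacsin C defined 100% inhibition.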

[1] = measured here: cell number channel AC50, cells fed with added oleic acid
[2] = measured here: lipid fluorescence (Fed channel) AC50, cells fed with added oleic acid

Row | Structure (SMILES) | cell number change | AC50 [1] | AC50 [2]
1 | CC1CC(C)CN(c2ccc([N+](=O)[O-])nc2)C1 (configuration not stated) | 31% | 9.2 µM [rising, partial curve, poor fit] | –
2 | CCN(CC)c1ccc(/C=N/Nc2nc(C)cc(=O)[nH]2)c(O)c1 | -6.03% | – | 29.1 µM [falling, partial curve]
3 | O=C(NCCc1ccccc1)c1oc2ccccc2c1COc1ccccc1 | -17% | – | 16.4 µM [falling, partial curve, poor fit]
4 | Fc1ccc(CN(Cc2ccccc2)C(c2cccs2)c2nnnn2C2CCCCC2)cc1 (configuration not stated) | -19.2% | – | 18.4 µM [rising, single point]
5 | COc1ccc(C(=O)NC(C)CCc2ccccc2)c(OC)c1 (configuration not stated) | -0.12% | – | 0.0651 µM [falling, full curve, poor fit]
6 | CCOC(=O)CC1CCCCN1C(=O)c1cc(COc2cccc3cnccc23)on1 (configuration not stated) | -23.5% | 0.731 µM [falling, full curve, poor fit] | 2.31 µM [falling, partial curve]
7 | CCN(CC)S(=O)(=O)c1ccc2c(c1)nc(CCC(=O)Nc1ccc3c(c1)OCO3)n2CC | 17.5% | – | 0.0411 µM [rising, full curve]
8 | COc1ccc(C)cc1Nc1nc(-c2c[nH]c3ccccc23)cs1 | 15% | – | 23.1 µM [rising, partial curve]
9 | CCOC(=O)c1sc(=NC(=O)c2ccc(F)cc2)n(C)c1C | -0.295% | – | –
10 | CCOc1ccc(N2CC(C(=O)Nc3cc(OCC)c(N4CCOCC4)cc3OCC)CC2=O)cc1 (configuration not stated) | 23% | – | –
11 | CCN(CC)CCCNC(=O)c1cc(-c2cccc(Cl)c2)on1 | -16.7% | – | 0.13 µM [falling, full curve, poor fit]
12 | CN1CCN(c2sc(S(C)(=O)=O)nc2S(=O)(=O)c2ccc(Cl)cc2)CC1 | -39.4% | 25.9 µM [falling, single point] | –
13 | CO/N=C/C(C(C)=O)C(=O)Nc1ccc(Cl)cc1Cl (configuration not stated) | -25.5% | 4.11 µM [falling, full curve, poor fit] | –
14 | Cc1ccc(NC(=S)NNC(=O)C2CC2c2ccc(C)cc2)cc1 (configuration not stated) | -25.5% | – | 29.1 µM [falling, single point]
15 | CSc1nc(C)cc(C)c1S(=O)(=O)c1ccccc1C | 9.49% | – | 29.1 µM [falling, single point]
16 | Cc1c2cnn(CC(=O)NCCCN3CC(C)CC(C)C3)c(=O)c2c(C)n1Cc1ccccc1Cl (configuration not stated) | 40.1% | 0.0058 µM [rising, full curve, poor fit] | –
17 | CC(=NCc1ccccc1)C1=C(O)COC1=O | -9% | – | 9.2 µM [falling, partial curve, poor fit]
18 | CCOC(=O)c1cn2cccnc2n1 | 37.5% | 4.11 µM [rising, single point] | 0.58 µM [falling, full curve]
19 | COc1ccc(CCN2CC(C(=O)NCc3ccc(F)cc3)CC2=O)cc1OC (configuration not stated) | -14.4% | – | –

Among those listed so far, these contain fluorine.
Row | Structure (SMILES) | cell number change | AC50 [1] | AC50 [2]
4 | Fc1ccc(CN(Cc2ccccc2)C(c2cccs2)c2nnnn2C2CCCCC2)cc1 (configuration not stated) | -19.2% | – | 18.4 µM [rising, single point]
9 | CCOC(=O)c1sc(=NC(=O)c2ccc(F)cc2)n(C)c1C | -0.295% | – | –
19 | COc1ccc(CCN2CC(C(=O)NCc3ccc(F)cc3)CC2=O)cc1OC (configuration not stated) | -14.4% | – | –

(continued)

Row | Structure (SMILES) | cell number change | AC50 [1] | AC50 [2]
20 | O=C(Nc1ncccc1Cl)c1cccc(F)c1 | -0.527% | – | 0.231 µM [falling, full curve]
21 | CC1=C(C(=O)Nc2ccccn2)C(c2ccc(Br)cc2)n2ncnc2N1 (configuration not stated) | 7.03% | 0.517 µM [falling, single point] | 11.6 µM [rising, single point]
22 | N=C1/C(=C\c2coc3ccc(O)cc3c2=O)C(=O)N=C2SC=CN12 | -67% | 29.1 µM [falling, single point] | 29.1 µM [falling, single point]
23 | COc1ccccc1NC(=O)CSc1nncn1-c1cccnc1 | 7.15% | – | 0.00651 µM [rising, full curve, poor fit]
24 | COc1ccc(CCNC(=O)C2CCCN(c3nc4ccccc4s3)C2)cc1OC (configuration not stated) | 10.9% | – | –
25 | COc1ccc(C(=O)NC(C)c2ccc(-n3ccnc3)cc2)cc1[N+](=O)[O-] (configuration not stated) | 44.4% | 25.9 µM [rising, single point] | –
26 | O=C1CCC(C(=O)OCC(=O)C23CC4CC(CC(C4)C2)C3)N1 (configuration not stated) | -2.45% | – | 0.259 µM [falling, partial curve, poor fit]
27 | CCOC(=O)Cn1ncc2c3ccccc3n(CC(=O)OCC)c2c1=O | -15.1% | 0.092 µM [falling, full curve, poor fit] | 0.146 µM [falling, full curve, poor fit]
28 | COCCN(CC(=O)Nc1cccc(C)c1C)C(=O)Cc1sc(C)nc1-c1ccc(F)cc1 | -31.5% | 32.6 µM [falling, single point] | 2.91 µM [rising, partial curve, poor fit]
29 | COc1ccc(CN2CCNC(=O)C2CC(=O)NCCN2CCCCC2=O)c(F)c1 (configuration not stated) | 17.1% | – | 20.6 µM [falling, single point]
30 | Cc1ccc(NC(=O)CN2C(=O)CCSc3ccc(S(=O)(=O)N4CCCC4)cc32)cc1C | 11.6% | – | 32.6 µM [rising, single point]
31 | O=C(NCC(=O)N1CCN(c2ccccc2O)CC1)c1ccccc1 | -31.4% | – | –
32 | COCCNS(=O)(=O)c1ccc2c(c1)oc(=O)c1cc(S(=O)(=O)NCCOC)ccc12 | -33.5% | 0.92 µM [falling, full curve, poor fit] | 0.231 µM [falling, full curve, poor fit]
33 | CCOc1cccc(/C=N/NS(=O)(=O)c2ccc(C)c([N+](=O)[O-])c2)c1O | – | 0.517 µM [rising, single point] | 0.58 µM [rising, single point]
34 | Cc1cc(C(F)(F)F)n(-c2nc(C(=O)NNS(=O)(=O)c3ccccc3)cs2)n1 | 43.6% | 29.1 µM [rising, single point] | 29.1 µM [rising, single point]
35 | CCc1ccccc1NC(=O)N[C@@H](C)C(=O)OC | -19.6% | – | 0.058 µM [falling, full curve, poor fit]
36 | c1cc2c(cc1C1=NNC(=NC3CC3)SC1)OCCO2 | – | 0.411 µM [rising, full curve] | –
37 | C[C@H](NC(=O)c1[nH]cnc1C(=O)Nc1nccs1)c1ccccc1 | -10.6% | – | 29.1 µM [rising, partial curve, poor fit]
38 | COC(=O)[C@@H]1C[C@@]2(O)[C@H](O)[C@H](O)[C@H](O)C[C@H]2N1Cc1ccc(C(F)(F)F)cc1 | 0.327% | – | 6.51 µM [falling, single point]

Row | Structure (SMILES) | cell number change | AC50 [1] | AC50 [2]
39 | CCCOc1ccc(C2C3=C(Nc4nc(N)[nH]c(=O)c42)c2ccccc2C3=O)cc1 (configuration not stated) | – | – | 0.206 µM [rising, full curve, poor fit]
40 | COc1cccc(C(=O)Nc2ccc(NC(=O)C(C)(C)C)cn2)c1 | 147% | 8.2 µM [rising, partial curve] | 7.31 µM [rising, partial curve]
41 | C=CCn1cccc(C(=O)Nc2cc(OC)cc(OC)c2)c1=O | -21.4% | 0.00411 µM [rising, full curve, poor fit] | 23.1 µM [falling, single point]
42 | COc1ccc(CCN2C(=NC(=O)CC(C)C)SC3CS(=O)(=O)CC32)cc1 (configuration not stated) | 40% | 0.651 µM [rising, partial curve, poor fit] | 2.06 µM [rising, partial curve]
43 | Cc1ccc(/C=N/NC(=O)CNC(=O)c2ccc(S(=O)(=O)N(C)C)cc2)o1 | 28.1% | – | 0.731 µM [falling, single point]
44 | O=C(N/N=C/c1ccccn1)c1cccc(S(=O)(=O)N2CCCC2)c1 | 1.14% | – | –
45 | CC(=O)Nc1ccc(SCC(=O)N(C)C2CCS(=O)(=O)C2)cc1 (configuration not stated) | – | – | 0.461 µM [falling, partial curve]
46 | O=C(OCC(=O)N1CCc2ccccc21)c1cccnc1Cl | -38.8% | 16.4 µM [falling, single point] | 29.1 µM [falling, single point]
47 | Cc1cc(SCC(=O)Nc2ccccc2)n2ncc(-c3ccccc3)c2n1 | -37% | 16.4 µM [falling, partial curve] | 18.4 µM [falling, partial curve]
48 | CCC1(CC)C(=O)C(C)(C)C(=O)OC1c1cccs1 (configuration not stated) | -17.6% | – | 6.51 µM [falling, single point]
49 | CC(Oc1ccc(F)cc1)C(=O)Nc1cccc(-c2nn[nH]n2)c1 (configuration not stated) | -12.4% | – | –
50 | COc1cc(OCC(N)=O)cc(OC)c1OC | 0.689% | – | 0.411 µM [falling, full curve, poor fit]
51 | COc1cc(CO)cc(Br)c1OCC(=O)O | – | – | 0.00517 µM [falling, full curve, poor fit]
52 | O=C(NCc1ccccn1)/C(=N/O)c1ccccc1 | -26.9% | 0.651 µM [falling, full curve, poor fit] | 0.58 µM [falling, full curve]
53 | COCCn1nnnc1C(C(C)C)N(Cc1cccnc1)Cc1cc2cc(OC)ccc2[nH]c1=O (configuration not stated) | 18% | – | –
54 | COc1cc2c(=O)n(CC3CCCO3)c(=O)n(CC(=O)Nc3cccc(Cl)c3)c2cc1OC (configuration not stated) | 22.3% | 1.16 µM [rising, full curve] | 2.06 µM [rising, partial curve]
55 | Cc1ccsc1C(=O)OC1CCOC1=O (configuration not stated) | -38.4% | 0.146 µM [falling, full curve, poor fit] | 0.82 µM [falling, full curve]
56 | O=C(c1ccc(COc2ccc(Cl)cc2)o1)N1CCN(Cc2ccc3c(c2)OCO3)CC1 | -6.95% | – | –
57 | O=C(Nc1nn[nH]n1)c1cc(-c2ccc(Cl)c(Cl)c2Cl)nc2ccccc12 | 145% | 29.1 µM [rising, single point] | –
